± gives the standard deviation of the averaged measurements. The list shows a part of the results. Repeats are few or missing, and single values can be far off.
What follows are compounds tested on RAW 264.7 macrophages infected with S. aureus JE2-lux (assay: host macrophage viability (CellTiter-Fluor) relative to DMSO vehicle; higher = more viable host cells). Details: 10 µM; treatment time 4 h; gentamicin 50 µg/ml.

Structure (SMILES)	host macrophage viability
COc1ccccc1CCNC(=O)C(=O)NCC1OCCN1S(=O)(=O)c1ccc([N+](=O)[O-])cc1 (stereo unspecified)	121%
Cc1ccc2nnc(-c3ccccc3)c(C(=O)Nc3ccc(F)cc3)c2c1	91.4%
O=C(CSc1ncnc2c1sc1nc3ccccc3cc12)c1ccc2c(c1)OCCO2	121%
Cc1cc2c(=O)n(Cc3ccco3)c(SCC(=O)Nc3ccc4c(c3)OCO4)nc2s1	126%
CN(C)CCCNc1ncnc2sc3c(c12)CCCC3	112%
CC1CN(C(=O)c2ncoc2-c2ccc(F)cc2)CC(C)O1 (stereo unspecified)	87.8%
CSc1ncc(C(=O)Nc2nc(-c3c[nH]c4cc(C)ccc34)cs2)cn1	112%
Cc1nn(-c2ccccc2)c2ncc(C(=O)Nc3ccc4c(c3)OCCO4)c(Cl)c12	114%
N#CC1=C(N)Oc2c(oc(CO)cc2=O)C12C(=O)N(Cc1ccccc1)c1ccccc12 (stereo unspecified)	127%
CCOc1ccc(CN2C(=O)c3ccccc3C2C(=O)NCCCOC(C)C)cc1 (stereo unspecified)	119%
CC(=O)Nc1ccc(Nc2ncnc3c2c(C)c(C)n3-c2ccccc2)cc1	113%
Cc1ccc(Cl)cc1NS(=O)(=O)c1cc(-c2nc(C)c(C)s2)cs1	113%
Cc1ccc(-c2nnc3ccc(SCC(=O)Nc4cc(C)on4)nn23)cc1	104 ± 14%
CCn1/c(=N/C(=O)CSCC(=O)Nc2nccs2)sc2ccccc21	105%
O=C(CN1C(=O)CC(c2ccco2)Sc2ccccc21)Nc1ccccc1 (stereo unspecified)	121 ± 20%
CCOC(=O)Nc1ccc2c(c1)C(=O)Nc1cc(C)ccc1O2	118%
CCOc1ccc2nc(NC(=O)CN3C(=O)c4ccccc4C3=O)sc2c1	106 ± 6%
CN1CCc2c(sc(NC(=O)c3cc(-c4ccccc4)nc4ccccc34)c2C(N)=O)C1	127%
CC1(C)Cc2c(sc(NC(=O)CN3C(=O)CCC3=O)c2C(N)=O)C(C)(C)N1	125%
O=C(/C=C/c1cccs1)Nc1nc2c(s1)CSc1ccccc1-2	92.4%
CC1CN(CC(=O)Nc2ccc3[nH]c(CN4CCCCC4)nc3c2)CC(C)O1 (stereo unspecified)	127%
Cc1cccc(CNc2nc(N3CCN(C)CC3)nc3c2cnn3C)c1	106%

Structure (SMILES)	host macrophage viability
CCOc1ccc(C(=O)Nc2cc(=O)n(C)c(=O)n2C)cc1	113%
Cc1cc2c(=O)n(CC(=O)Nc3cnn(Cc4ccc(F)cc4)c3)cnc2s1	111%
CC(NC(=O)C(C)N1C(=O)NC(C)(C)C1=O)c1ccc2c(c1)CCC2 (stereo unspecified)	120%
O=C1C2C(c3ccc(O)cc3)NN(Cc3ccccc3)C2C(=O)N1C1CCCCC1 (stereo unspecified)	142%
O=C(Nc1nnc(Cc2cccc(F)c2)s1)c1cc2c([nH]c1=O)CCCCC2	133%
CCN(c1ccccc1)S(=O)(=O)c1ccc(C(=O)Nc2ccc3ncsc3c2)cc1	105%
CCOc1cccc2c1OC(c1ccncc1)N1N=C(c3cccc(O)c3)CC21 (stereo unspecified)	129%
COc1ccc(C)c2s/c(=N\C(=O)C3COc4ccccc4O3)n(C)c12 (stereo unspecified)	99.3%
COc1ccc2nc(Nc3sc4c(c3C(N)=O)CCC(C)C4)sc2c1 (stereo unspecified)	109 ± 3%
CSC1=C(C#N)C(c2ccncc2)C(C(=O)Nc2ccccc2)=C(C)N1 (stereo unspecified)	108%
O=C(CCCn1c(=S)[nH]c2cc3c(cc2c1=O)OCO3)N1CCN(C(=O)c2ccco2)CC1	123%
Cn1c(=O)n(CCCO)c(=O)c2c1nc1n(-c3ccccc3F)c(-c3ccccc3)cn21	107%
Cc1cccc(NC(=O)C(=O)NCCCO)c1C	96.7%
Cc1nc2nc(-c3ccccc3)nn2c(Sc2ccc(N)cc2)c1C	90.9%
O=C(Nc1ccc(C(=O)OCc2nc3ccccc3[nH]2)cc1)c1ccc2nccnc2c1	108%
Cc1ccc(C2C(C(=O)c3ccco3)=C(O)C(=O)N2CCCN(C)C)cc1 (stereo unspecified)	96.6%
CCn1nc(C)c2[nH]c(=S)n(Cc3cccc(OC)c3)c(=O)c21	127%
C/C(=N\Nc1nc2c(c(=O)[nH]c(=O)n2C)n1CC(C)C)c1ccccc1	134%
CCOc1ccc(-c2cc3c(N4CCC(C(=O)NCc5cccnc5)CC4)nccn3n2)cc1	139%
CCOC(=O)c1ccccc1NC(=O)CSc1nc2c(-c3ccccc3)csc2c(=O)n1C	115%
COc1ccccc1-n1c(SCC(=O)Nc2ccccc2F)nc2cccnc21	113%
CCOC(=O)c1c(NC(=O)CSc2nc(N)cc(=O)[nH]2)sc(C)c1C	123%

Given with each value named: 4 of the compounds above.
CCOc1ccc(CN2C(=O)c3ccccc3C2C(=O)NCCCOC(C)C)cc1 (stereo unspecified)
  host macrophage viability: 119%
CC(=O)Nc1ccc(Nc2ncnc3c2c(C)c(C)n3-c2ccccc2)cc1
  host macrophage viability: 113%
O=C1C2C(c3ccc(O)cc3)NN(Cc3ccccc3)C2C(=O)N1C1CCCCC1 (stereo unspecified)
  host macrophage viability: 142%
COc1ccc2nc(Nc3sc4c(c3C(N)=O)CCC(C)C4)sc2c1 (stereo unspecified)
  host macrophage viability: 109 ± 3%

Next compounds follow.

Structure (SMILES)	host macrophage viability
CCCc1cc(O)n2nc(-c3cccc(OC)c3)cc2n1	118%
O=C(c1cccn2c(-c3ccc(F)cc3)nnc12)N1CCC(Cc2ccccc2)CC1	115%
Cn1c(=O)[nH]c(=O)c2c1nc(Br)n2CCSc1nc2ccccc2s1	96.6%
COc1ccc(-c2noc(NCc3cccnc3)n2)cc1	118%
Cc1ccc(Cl)cc1NC(=O)Cn1c(=O)c2nnc(CCC(=O)NC(C)C)n2c2ccccc21	121%
O=C(CN1C(=O)COc2ccccc21)NNC(=O)Nc1ccccc1F	124%
Cc1cc(C)cc(NC(=O)CSc2nc3c(c(=O)[nH]2)CN(C(C)C)CC3)c1	115%
COc1ccccc1CNC(=O)CSc1nc(=O)[nH]cc1C	105%
Cc1ccc(NC(=O)Cn2c3c(sc2=O)C2c4cc([N+](=O)[O-])ccc4OCC2CS3)cc1 (stereo unspecified)	111%
O=C(Nc1ccc(Cl)cc1)N1CCc2nc(N3CCCCC3)ncc2C1	132%
O=C(Nc1ccc2ccccc2c1)c1cc2ccccc2oc1=O	101 ± 1.6%
Fc1cccc(Cl)c1CSc1nnc2ccc(-c3ccccn3)nn12	118%
CCn1c(SCC(=O)NCc2ccc(F)cc2)nc2c(c1=O)SC(C)C2 (stereo unspecified)	122%
O=C(NCC(c1cccs1)S(=O)(=O)c1cccs1)Nc1ccc(Cl)cc1 (stereo unspecified)	110%
O=C(CC1(O)C(=O)Nc2ccc(Cl)cc21)c1cccs1 (stereo unspecified)	109%
CC1CCCCN1S(=O)(=O)c1ccc2c(c1)c(=O)n(CC(=O)N1CCCC1)c(=O)n2C (stereo unspecified)	116%
CC(=O)c1cnc2cc(C(=O)NC(c3ccccc3)c3cccnc3)nn2c1C (stereo unspecified)	124%
O=C(CSc1nnc(-c2ccco2)c(-c2ccco2)n1)c1cccs1	109%
Cc1cc(OC(=O)c2ccc(Br)o2)c([N+](=O)[O-])c(=O)[nH]1	121%
Cc1cc(N2CCOCC2)nc(SCC(=O)Nc2ccc(Cl)cc2Cl)n1	129%
Cc1ccc(-c2nsc(NC(=O)c3oc4cc(Br)ccc4c3C)n2)s1	112%
O=C(COc1coc(CN2CCN(c3ccccc3F)CC2)cc1=O)Nc1cccc([N+](=O)[O-])c1	104%
